According to patent publication US7375232B2, “Ortho-heterocyclic substituted aryl amides for controlling invertebrate pests” (E.I. du Pont de Nemours and Company, priority 2001, dated 2008):
Some entries share one result that the patent states for a list of compounds.

Key:
Format in all cases: in vivo
[1] = test system: diamondback moth (Plutella xylostella); experiment: Test A: control of diamondback moth on radish plant, foliar spray, visual feeding damage; conditions: neonate larvae, assessed after 6 days at 25° C.
[2] = test system: fall armyworm (Spodoptera frugiperda); experiment: Test B: control of fall armyworm on corn (maize) plant, foliar spray, visual feeding damage; conditions: 1-day-old larvae
[3] = test system: tobacco budworm (Heliothis virescens); experiment: Test C: control of tobacco budworm on cotton plant, foliar spray, visual feeding damage; conditions: 2-day-old larvae

Compound: Cc1cccc(C2=NC(C)(C)CO2)c1NC(=O)c1ccccc1 [Compound 2]
- plant protection (feeding damage) ([1]; tested at 50 ppm (starred)): ≤ 20%

Compound: Cc1ccc(C(=O)Nc2c(C)cccc2C2=NC(C)(C)CO2)c(C)c1 [Compound 3]
- plant protection (feeding damage) ([1]; sprayed at 250 ppm (or lower)): ≤ 20%

Compound: Cc1cccc(C2=NCCN2C)c1NC(=O)c1cc(C(F)(F)F)nn1-c1ncccc1Cl [Compound 8, 1-(3-chloro-2-pyridinyl)-N-[2-(4,5-dihydro-1-methyl-1H-imidazol-2-yl)-6-methylphenyl]-3-(trifluoromethyl)-1H-pyrazole-5-carboxamide]
- plant protection (feeding damage) ([1]; sprayed at 250 ppm (or lower)): ≤ 20%

Compound: Cc1cc(Br)cc(C2=NCCN2C)c1NC(=O)c1cc(C(F)(F)F)nn1-c1ccccc1Cl [Compound 10, N-[4-Bromo-2-(4,5-dihydro-1-methyl-1H-imidazol-2-yl)-6-methylphenyl]-1-(2-chlorophenyl)-3-(trifluoromethyl)-1H-pyrazole-5-carboxamide]
- plant protection (feeding damage) ([1]; tested at 50 ppm (starred)): ≤ 20%
- plant protection (feeding damage) ([2]; sprayed at 250 ppm (or lower)): ≤ 20%
- plant protection (feeding damage) ([3]; tested at 50 ppm (starred)): ≤ 20%

Compound: Cc1cccc(-c2ncc[nH]2)c1NC(=O)c1cc(C(F)(F)F)nn1-c1ncccc1Cl [Compound 13]
- plant protection (feeding damage) ([1]; tested at 50 ppm (starred)): ≤ 20%
- plant protection (feeding damage) ([2]; tested at 50 ppm (starred)): ≤ 20%
- plant protection (feeding damage) ([3]; sprayed at 250 ppm (or lower)): ≤ 20%

Compound: Cc1cccc(-c2nccn2C)c1NC(=O)c1cc(C(F)(F)F)nn1-c1ccccc1Cl [Compound 14, 1-(2-Chlorophenyl)-N-[2-methyl-6-(1-methyl-1H-imidazol-2-yl)phenyl]-3-(trifluoromethyl)-1H-pyrazole-5-carboxamide]
- plant protection (feeding damage) ([1]; tested at 50 ppm (starred)): ≤ 20%
- plant protection (feeding damage) ([2]; tested at 50 ppm (starred)): ≤ 20%
- plant protection (feeding damage) ([3]; tested at 50 ppm (starred)): ≤ 20%

Compound: Cc1cccc(C2=NC(=O)CCN2)c1NC(=O)c1cc(C(F)(F)F)nn1-c1ncccc1Cl [Compound 17, 1-(3-Chloro-2-pyridinyl)-N-[2-methyl-6-(1,4,5,6-tetrahydro-4-oxo-2-pyrimidinyl)phenyl]-3-(trifluoromethyl)-1H-pyrazole-5-carboxamide]
- plant protection (feeding damage) ([1]; tested at 50 ppm (starred)): ≤ 20%
- plant protection (feeding damage) ([2]; tested at 50 ppm (starred)): ≤ 20%
- plant protection (feeding damage) ([3]; tested at 50 ppm (starred)): ≤ 20%
